Measured data: PubChem BioAssay AID1159584 (Peter MacCallum Cancer Centre, 2016)
The whole screen tested about 18,000 reagents; this is an unselected part. Not given: the amount of reagent, the time to read-out.

Assay: 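Genes that CDH1-null MCF10A cells selectively depend on to survive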 (primary screen)
Cell system: human MCF10A breast epithelial cells, parental and CDH1-null
Reagents: siRNA against human genes
Detection: 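Cell viability by CellTiter-Glo ATP luminescence, each line scaled to the mean of mock wells across plates, then CDH1-null over parental ratio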
Direction: CDH1-null / parental viability ratio: higher = CDH1-null cells survive relatively better than parental; CDH1-null viability vs mock: higher = more viable CDH1-null cells; parental viability vs mock: higher = more viable parental cells

gene,CDH1-null / parental viability ratio,CDH1-null viability vs mock (fraction of mock),parental viability vs mock (fraction of mock)
AMELX,0.93,0.71,0.76
UBA5,1.18,0.97,0.82
HSFY2,1.26,0.78,0.62
SH3GLB1,1.18,0.52,0.44
CPA3,1.13,0.71,0.63
GRAMD1B,1.03,1.06,1.03
GRIN3B,1.09,1.07,0.98
HIF1A,0.82,0.66,0.8
ALDH1B1,1.1,1.06,0.96
TNXB,0.8,0.41,0.51
DHRS13,0.96,0.82,0.85
FLT4,0.82,0.46,0.56
XKR3,1.17,0.82,0.7
GCA,0.95,0.36,0.38
HELQ,0.99,0.87,0.88

Records above whose target name begins with A or a (2):
gene,CDH1-null / parental viability ratio,CDH1-null viability vs mock (fraction of mock),parental viability vs mock (fraction of mock)
AMELX,0.93,0.71,0.76
ALDH1B1,1.1,1.06,0.96

The results go on.
gene,CDH1-null / parental viability ratio,CDH1-null viability vs mock (fraction of mock),parental viability vs mock (fraction of mock)
C3orf52,1.2,0.72,0.6
CEP85,0.95,0.8,0.84
SCLY,1.11,0.82,0.74
PLEKHA8,0.94,0.34,0.36
CDC7,0.91,0.82,0.9
EXOSC7,1.11,0.84,0.76
CSRNP3,0.93,0.63,0.68
MT1X,1.17,0.76,0.65
BRWD3,1.03,0.96,0.93
SMG9,1,0.88,0.88
DLX1,0.72,0.42,0.58
KCNE1,1.14,1.07,0.94
ZNF445,0.63,0.38,0.6
